Data from PubChem BioAssay AID1487 (National Center for Advancing Translational Sciences (NCATS), 2009).
Some of the results follow. Further columns of the screen follow, without active or inactive calls. Most of these compounds were active or inconclusive in the main read-out, so they are no random draw. Potencies come from curve fits of mixed quality, noted in brackets.

Assay: qHTS Assay for Modulators of Lamin A Splicing
Settings: HeLa LMNA splicing GFP/RFP minigene ratio, 48 h
How it was run: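 S3 HeLa stable clones carrying a lamin A-EGFP splicing minigene plus DsRed2 were seeded at 600 cells/well in Opti-MEM with 2% FBS, pin-dosed and incubated 48 h at 37°C. Acumen cytometry (488 nm) gave the GFP/RFP total-intensity ratio.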

[1] = measured here: GFP splicing reporter channel
[2] = measured here: RFP viability control channel

SMILES: CCCOc1ccc(-c2nnn(CC(=O)c3ccc4c(c3)OCCO4)n2)cc1
- AC50 [1]: 20 µM [rising, partial curve]

SMILES: CCn1c(=O)cc(SCC(=O)Nc2ccc(C)cn2)c2ccccc21
- AC50 [2]: 17.8 µM [falling, single point]

SMILES: Cn1c(=O)c(/C=C/c2ccccc2)nc2ccccc21
- AC50 [2]: 0.0316 µM [rising, full curve, poor fit]

SMILES: Cc1ccc(-n2c(C)cc(/C=N/NC(=O)c3ccncc3)c2C)c(C)c1
- AC50 [2]: 11.2 µM [rising, single point]

SMILES: COCCNC(=O)COC(=O)/C=C/c1c(C)nn(Cc2ccc(Cl)cc2Cl)c1Cl
- AC50 [2]: 31.6 µM [rising, single point]

SMILES: CN[C@]1(C)[C@H]2CC[C@@H](C2)C1(C)C
- AC50 [1]: 3.16 µM [falling, single point]

SMILES: CCCCNC(=O)c1sc(=S)n(-c2ccccc2OC)c1N
- AC50 [1]: 3.16 µM [falling, single point]
- AC50 [2]: 2.82 µM [falling, partial curve]

SMILES: CC(C)(Oc1ccc([C@@H]2CC2(Cl)Cl)cc1)C(=O)O
- AC50 [1]: 12.6 µM [falling, single point]
- AC50 [2]: 14.1 µM [falling, single point]

SMILES: CCCCC(=O)Nc1cccc(-c2csc(-c3ccccc3)n2)c1
- AC50 [1]: 31.6 µM [rising, single point]
- AC50 [2]: 35.5 µM [rising, single point]

SMILES: O=C(NCC1(c2ccccc2)CCCC1)C1(c2ccccc2)CCCC1
- AC50 [2]: 14.1 µM [rising, single point]

SMILES: CCN(CC)c1ccc(/C=N/Nc2ccc(C)cc2)c(O)c1
- AC50 [1]: 17.8 µM [rising, single point]
- AC50 [2]: 25.1 µM [rising, single point]

SMILES: CNC(=S)N/N=C/c1cc(C)ccc1C
- AC50 [1]: 20 µM [falling, single point]
- AC50 [2]: 35.5 µM [falling, single point]

SMILES: COc1ccccc1-c1n[nH]c(=S)n1-c1ccccc1
- AC50 [2]: 5.62 µM [rising, single point]

SMILES: Cc1c(C(=O)N/N=C/C(C)C)[nH]c2c([N+](=O)[O-])cccc12
- AC50 [2]: 20 µM [rising, partial curve]

SMILES: Cc1cc(Oc2ccc3ccccc3c2)nc(SCC(=O)c2ccccc2)n1
- AC50 [2]: 35.5 µM [rising, single point]

SMILES: COc1ccc(OC)c(C2C=C(C34CC5CC(CC(C5)C3)C4)NC(=S)N2)c1 (centres undefined)
- AC50 [2]: 17.8 µM [rising, single point]

SMILES: COc1ccc(/C=C/c2nc3ccccc3n2Cc2ccccc2OC)cc1
- AC50 [2]: 35.5 µM [rising, single point]

SMILES: COC(=O)CN1C(=O)S/C(=C/c2ccc(N3CCCCC3)o2)C1=O
- AC50 [1]: 25.1 µM [falling, single point]
- AC50 [2]: 0.0708 µM [falling, single point]

SMILES: Cc1cccc(N2CCN(C(=S)c3ccc([N+](=O)[O-])cc3)CC2)c1
- AC50 [1]: 35.5 µM [rising, single point]
- AC50 [2]: 31.6 µM [rising, single point]

SMILES: CC1Cc2ccccc2N1C(=S)Nc1ccc(S(N)(=O)=O)cc1 (centres undefined)
- AC50 [1]: 22.4 µM [rising, single point]
- AC50 [2]: 25.1 µM [rising, single point]

SMILES: CCOC(=O)c1ccc2c(c1)n(CC)c(/C=C/N(C)c1ccccc1)[n+]2CC
- AC50 [1]: 3.98 µM [rising, partial curve, poor fit]
- AC50 [2]: 20 µM [rising, single point]

SMILES: COC(=O)CSC1=C(C#N)C(c2ccc(C)o2)CC(=O)N1 (centres undefined)
- AC50 [1]: 0.282 µM [falling, partial curve, poor fit]

SMILES: O=C(N/N=C/c1ccccc1OCc1ccccc1)c1cccnc1
- AC50 [2]: 12.6 µM [rising, single point]

SMILES: C=CCNc1ncnc2ccc(Br)cc12
- AC50 [2]: 11.2 µM [rising, partial curve]

SMILES: O=C(Nc1ccc(S(=O)(=O)NCCc2ccccc2)cc1)c1ccco1
- AC50 [2]: 31.6 µM [rising, single point]

SMILES: Cc1ccc(C(=O)CC2(O)C(=O)N(Cc3ccccc3Cl)c3ccccc32)o1 (centres undefined)
- AC50 [2]: 20 µM [rising, single point]

SMILES: CN1CCN(C(=S)Nc2cccc(C(F)(F)F)c2)CC1
- AC50 [2]: 10 µM [rising, single point]

SMILES: C=C(C)COc1ccc(-c2[nH]ncc2Oc2ccccc2OC)c(O)c1
- AC50 [1]: 10 µM [rising, partial curve, poor fit]
- AC50 [2]: 8.91 µM [rising, partial curve, poor fit]

SMILES: O=C(Nc1ccccc1Cl)c1cc(S(=O)(=O)N2CCCC(C(=O)O)C2)ccc1F (centres undefined)
- AC50 [1]: 35.5 µM [rising, single point]

SMILES: CC12CCC(C(=O)Nc3cc(F)ccc3F)(CC1=O)C2(C)C (centres undefined)
- AC50 [2]: 2.51 µM [rising, partial curve, poor fit]

SMILES: COc1ccc(N(CC(=O)N2c3ccccc3CC2C)S(=O)(=O)c2c(C)noc2C)cc1 (centres undefined)
- AC50 [2]: 22.4 µM [rising, single point]

SMILES: O=c1c2c(nc3c(-c4cccc5ccccc45)c[nH]n13)CCC2
- AC50 [2]: 35.5 µM [rising, single point]

SMILES: CCOc1ccc(C(=O)NCCS(=O)(=O)N2CCN(c3cccc(Cl)c3)CC2)cc1
- AC50 [2]: 0.501 µM [falling, full curve, poor fit]

SMILES: O=C(NCCc1ccccc1)c1cc(-c2ccc3c(c2)OCO3)on1
- AC50 [2]: 2.82 µM [falling, partial curve, poor fit]

SMILES: CCOC(=O)N1CCc2c(sc(NCc3ccc(OC)c(Br)c3)c2C(=O)Nc2cc(OC)ccc2OC)C1
- AC50 [2]: 0.0891 µM [falling, full curve, poor fit]

SMILES: CCn1c(CSCc2ccc(F)cc2)nnc1SCC(=O)N1CCN(c2ccccc2)CC1
- AC50 [1]: 35.5 µM [rising, single point]
- AC50 [2]: 31.6 µM [rising, single point]

SMILES: CCc1nc(SCC(=O)NCC2CCCO2)c2oc3ccccc3c2n1 (centres undefined)
- AC50 [1]: 3.55 µM [rising, full curve]
- AC50 [2]: 10 µM [rising, partial curve]
